# Experimental data: the supplement of paper PMC8728848
# Some of the results follow.
# Legend:
# Test in all cases: glycan array binding signal (z-score within array); higher = stronger binding
# Details in all cases: glycan notation: IUPAC condensed, linker removed
# [1] = biological target: GalNAc(b1-6)GalNAc
# Procedure, shortened: (§1)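 The binding signal is a Z-score computed within each array and averaged over linkers. Arrays of the same protein sequence at different concentrations or buffers were also averaged together. Data originate from 3228 arrays in the Consortium for Functional Glycomics database, kept only where the protein sequence was available.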
# [2] = biological target: Glc(a1-4)Glc
# Procedure, shortened: as §1
# [3] = biological target: Glc(a1-4)Glc(a1-4)Glc(a1-4)Glc
# Procedure, shortened: as §1
# [4] = biological target: Glc(a1-6)Glc(a1-6)Glc
# Procedure, shortened: as §1
# [5] = biological target: Glc(a1-6)Glc(a1-6)Glc(a1-6)Glc
# Procedure, shortened: as §1
# [6] = biological target: Glc(b1-4)Glc
# Procedure, shortened: as §1
# [7] = biological target: Glc(b1-6)Glc
# Procedure, shortened: as §1
# [8] = biological target: GlcA(b1-3)Gal
# Procedure, shortened: as §1
# [9] = biological target: GlcA(b1-3)GlcNAc
# Procedure, shortened: as §1
# [10] = biological target: GlcA(b1-6)Gal
# Procedure, shortened: as §1
# [11] = biological target: GlcNAc(a1-3)Gal(b1-4)GlcNAc
# Procedure, shortened: as §1
# [12] = biological target: GlcNAc(a1-4)Gal(b1-3)GlcNAc
# Procedure, shortened: as §1
# [13] = biological target: GlcNAc(a1-4)Gal(b1-4)GalNAc
# Procedure, shortened: as §1
# [14] = biological target: GlcNAc(a1-4)Gal(b1-4)GlcNAc
# Procedure, shortened: as §1
# [15] = biological target: GlcNAc(a1-4)Gal(b1-4)GlcNAc(b1-3)Gal(b1-4)Glc
# Procedure, shortened: as §1
# [16] = biological target: GlcNAc(a1-4)Gal(b1-4)GlcNAc(b1-3)Gal(b1-4)GlcNAc
# Procedure, shortened: as §1
# [17] = biological target: GlcNAc(a1-4)Gal(b1-4)GlcNAc(b1-3)Gal(b1-4)GlcNAc(b1-3)Gal(b1-4)GlcNAc
# Procedure, shortened: as §1
# [18] = biological target: GlcNAc(a1-4)Gal(b1-4)GlcNAc(b1-3)Gal(b1-4)[Fuc(a1-3)]GlcNAc(b1-3)Gal(b1-4)[Fuc(a1-3)]GlcNAc
# Procedure, shortened: as §1
# [19] = biological target: GlcNAc(a1-6)Gal(b1-4)GlcNAc
# Procedure, shortened: as §1
# [20] = biological target: GlcNAc(b1-2)Gal(b1-3)GalNAc
# Procedure, shortened: as §1
# [21] = biological target: GlcNAc(b1-2)Man(a1-3)[GlcNAc(b1-2)Man(a1-6)]Man(b1-4)GlcNAc(b1-4)GlcNAc
# Procedure, shortened: as §1
# [22] = biological target: GlcNAc(b1-2)Man(a1-3)[GlcNAc(b1-2)Man(a1-6)]Man(b1-4)GlcNAc(b1-4)[Fuc(a1-6)]GlcNAc
# Procedure, shortened: as §1
# [23] = biological target: GlcNAc(b1-2)Man(a1-3)[GlcNAc(b1-4)][GlcNAc(b1-2)Man(a1-6)]Man(b1-4)GlcNAc(b1-4)GlcNAc
# Procedure, shortened: as §1
# [24] = biological target: GlcNAc(b1-2)[GlcNAc(b1-4)]Man(a1-3)[GlcNAc(b1-2)Man(a1-6)]Man(b1-4)GlcNAc(b1-4)GlcNAc
# Procedure, shortened: as §1
# [25] = biological target: GlcNAc(b1-2)[GlcNAc(b1-4)]Man(a1-3)[GlcNAc(b1-4)][GlcNAc(b1-2)Man(a1-6)]Man(b1-4)GlcNAc(b1-4)GlcNAc
# Procedure, shortened: as §1
# [26] = biological target: GlcNAc(b1-2)[GlcNAc(b1-4)]Man(a1-3)[GlcNAc(b1-4)][GlcNAc(b1-2)[GlcNAc(b1-6)]Man(a1-6)]Man(b1-4)GlcNAc(b1-4)GlcNAc
# Procedure, shortened: as §1
# [27] = biological target: GlcNAc(b1-2)[GlcNAc(b1-6)]Man(a1-6)[GlcNAc(b1-2)Man(a1-3)]Man(b1-4)GlcNAc(b1-4)GlcNAc
# Procedure, shortened: as §1
# [28] = biological target: GlcNAc(b1-2)[GlcNAc(b1-6)]Man(a1-6)[GlcNAc(b1-2)Man(a1-3)][GlcNAc(b1-4)]Man(b1-4)GlcNAc(b1-4)GlcNAc
# Procedure, shortened: as §1
# [29] = biological target: GlcNAc(b1-3)Gal
# Procedure, shortened: as §1
# [30] = biological target: GlcNAc(b1-3)Gal(b1-3)GalNAc
# Procedure, shortened: as §1
# [31] = biological target: GlcNAc(b1-3)Gal(b1-4)Glc
# Procedure, shortened: as §1
# [32] = biological target: GlcNAc(b1-3)Gal(b1-4)GlcNAc
# Procedure, shortened: as §1
# [33] = biological target: GlcNAc(b1-3)Gal(b1-4)GlcNAc(b1-3)Gal(b1-4)GlcNAc
# Procedure, shortened: as §1
# [34] = biological target: GlcNAc(b1-3)GalNAc
# Procedure, shortened: as §1
# [35] = biological target: GlcNAc(b1-3)Man
# Procedure, shortened: as §1
# [36] = biological target: GlcNAc(b1-3)[GlcNAc(b1-4)][GlcNAc(b1-6)]GlcNAc
# Procedure, shortened: as §1
# [37] = biological target: GlcNAc(b1-3)[GlcNAc(b1-6)]Gal(b1-4)GlcNAc
# Procedure, shortened: as §1
# [38] = biological target: GlcNAc(b1-3)[GlcNAc(b1-6)]GalNAc
# Procedure, shortened: as §1
# [39] = biological target: GlcNAc(b1-4)Gal(b1-4)GlcNAc
# Procedure, shortened: as §1
# [40] = biological target: GlcNAc(b1-4)GlcNAc
# Procedure, shortened: as §1
# [41] = biological target: GlcNAc(b1-4)GlcNAc(b1-4)GlcNAc
# Procedure, shortened: as §1
# [42] = biological target: GlcNAc(b1-4)GlcNAc(b1-4)GlcNAc(b1-4)GlcNAc(b1-4)GlcNAc
# Procedure, shortened: as §1
# [43] = biological target: GlcNAc(b1-4)GlcNAc(b1-4)GlcNAc(b1-4)GlcNAc(b1-4)GlcNAc(b1-4)GlcNAc
# Procedure, shortened: as §1
# [44] = biological target: GlcNAc(b1-4)[GlcNAc(b1-6)]GalNAc
# Procedure, shortened: as §1
# [45] = biological target: GlcNAc(b1-6)Gal(b1-4)GlcNAc
# Procedure, shortened: as §1
binder,measurement,setting,value
"Eosinophil-derived neurotoxin (EDN) (Homo sapiens), P10153 (protein) MVPKLFTSQICLLLLLGLLAVEGSLHVKPPQFTWAQWFETQHINMTSQQCTNAMQVINNYQRRCKNQNTFLLTTFANVVNVCGNPNMTCPSNKTRKNCHHSGSQVPLIHCNLTTPSPQNISNCRYAQTPANMFYIVACDNRDQRRDPPQYPVVPVHLDRII",glycan array binding signal (z-score),[1],-0.109
same,glycan array binding signal (z-score),[2],-0.482
same,glycan array binding signal (z-score),[3],0.081
same,glycan array binding signal (z-score),[4],0.261
same,glycan array binding signal (z-score),[5],0.37
same,glycan array binding signal (z-score),[6],-0.293
same,glycan array binding signal (z-score),[7],-0.485
same,glycan array binding signal (z-score),[8],1.01
same,glycan array binding signal (z-score),[9],-0.868
same,glycan array binding signal (z-score),[10],-0.344
same,glycan array binding signal (z-score),[11],0.256
same,glycan array binding signal (z-score),[12],-0.632
same,glycan array binding signal (z-score),[13],-0.236
same,glycan array binding signal (z-score),[14],-0.032
same,glycan array binding signal (z-score),[15],0.067
same,glycan array binding signal (z-score),[16],12.5
same,glycan array binding signal (z-score),[17],-0.171
same,glycan array binding signal (z-score),[18],1.45
same,glycan array binding signal (z-score),[19],-0.29
same,glycan array binding signal (z-score),[20],-0.033
same,glycan array binding signal (z-score),[21],0.078
same,glycan array binding signal (z-score),[22],0.129
same,glycan array binding signal (z-score),[23],0.131
same,glycan array binding signal (z-score),[24],-0.018
same,glycan array binding signal (z-score),[25],0.16
same,glycan array binding signal (z-score),[26],-0.3
same,glycan array binding signal (z-score),[27],-0.199
same,glycan array binding signal (z-score),[28],0.017
same,glycan array binding signal (z-score),[29],-0.016
same,glycan array binding signal (z-score),[30],-0.554
same,glycan array binding signal (z-score),[31],-0.198
same,glycan array binding signal (z-score),[32],-0.144
same,glycan array binding signal (z-score),[33],-0.442
same,glycan array binding signal (z-score),[34],0.083
same,glycan array binding signal (z-score),[35],-1.13
same,glycan array binding signal (z-score),[36],0.413
same,glycan array binding signal (z-score),[37],0.281
same,glycan array binding signal (z-score),[38],-0.311
same,glycan array binding signal (z-score),[39],-0.65
same,glycan array binding signal (z-score),[40],-0.215
same,glycan array binding signal (z-score),[41],-0.177
same,glycan array binding signal (z-score),[42],-0.747
same,glycan array binding signal (z-score),[43],-0.132
same,glycan array binding signal (z-score),[44],0.248
same,glycan array binding signal (z-score),[45],-0.341

# Reprinted at random: three entries already listed
binder,measurement,setting,value
"Eosinophil-derived neurotoxin (EDN) (Homo sapiens), P10153 (protein) MVPKLFTSQICLLLLLGLLAVEGSLHVKPPQFTWAQWFETQHINMTSQQCTNAMQVINNYQRRCKNQNTFLLTTFANVVNVCGNPNMTCPSNKTRKNCHHSGSQVPLIHCNLTTPSPQNISNCRYAQTPANMFYIVACDNRDQRRDPPQYPVVPVHLDRII",glycan array binding signal (z-score),[6],-0.293
same,glycan array binding signal (z-score),[37],0.281
same,glycan array binding signal (z-score),[42],-0.747
